Results are given in words; binding and its absence hold for the method and conditions named. Binding seen in cells or lysates may run through a third protein. For some assays here: Binding calls can cover weak binding; strength is not graded here. Sequences can lack the tags named with a protein.
T1: mouse TEX19.1-YFP (expressed in HEK293 or HEK293T cells) (mouse) (UniProt Q99MV2)
T1 sequence: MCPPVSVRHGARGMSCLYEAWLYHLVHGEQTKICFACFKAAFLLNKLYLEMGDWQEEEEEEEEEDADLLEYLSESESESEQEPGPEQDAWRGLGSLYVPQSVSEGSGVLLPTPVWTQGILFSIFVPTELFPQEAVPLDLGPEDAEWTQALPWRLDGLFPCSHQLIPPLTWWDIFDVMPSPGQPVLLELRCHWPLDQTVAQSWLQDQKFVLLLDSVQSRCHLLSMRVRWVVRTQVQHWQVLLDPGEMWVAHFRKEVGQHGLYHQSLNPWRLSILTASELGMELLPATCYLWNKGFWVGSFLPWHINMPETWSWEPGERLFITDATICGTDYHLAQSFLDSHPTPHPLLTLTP


What was measured:
[1] = biological target: T1, mouse TEX19.1-YFP (expressed in HEK293 or HEK293T cells) (mouse); assay: co-IP; HEK293T co-transfected, harvested after 24 hr; GFP-Trap agarose beads to precipitate YFP- or GFP-tagged proteins; Western blot
[2] = biological target: Strep-tagged human L1-ORF1p (human); assay: pull-down; Strep-Tactin Sepharose pull-down from E. coli lysate of co-expressed proteins; 50 mM Hepes pH 7.0, 200 mM NaCl, 2 mM DTT, 45 min at 4°C; elution with 2.5 mM biotin, SDS-PAGE
[3] = biological target: Strep-tagged human L1-ORF1p (human); assay: pull-down; Strep-Tactin pull-down from E. coli lysate of co-expressed proteins treated with micrococcal nuclease (4 x 10^3 gel units/ml, 2.5 mM CaCl2, 15 min at 4°C); 50 mM Hepes pH 7.0, 150 mM NaCl, 2 mM DTT
[4] = biological target: Strep-tagged human L1-ORF1p (human); assay: condition: only proteins expressed separately, TEX19 added after L1-ORF1p immobilization on Strep-Tactin beads; pull-down; proteins expressed separately in E. coli: Strep-tagged partner immobilised on Strep-Tactin Sepharose from lysate and washed, then TEX19 lysate added, 45 min at 4°C; 50 mM Hepes pH 7.0, 200 mM NaCl, 2 mM DTT

Row | binding [1] | binding [2] | binding [3] | binding [4] | Molecule
1 | binds | – | – | – | T7 epitope-tagged mouse L1-ORF1p RNA-binding mutant R297A R298A
2 | – | binds | binds | no binding | double-tagged human MBP-TEX19-GB1-His6 (protein, UniProt Q8NA77 1-164) MCPPVSMRYEEEGMSYLYASWMYQLQHGDQLSICFTCFKAAFLDFKDLLESEDWEEDNWDPELMEHTEAESEQEGSSGMELSWGQSPGQPVQGGSEAWGPGTLAAAPEGLEDAGLDPHFVPTELWPQEAVPLGLGLEDADWTQGLPWRFEELLTCSHWPSFFPS
3 | – | binds | – | – | human TEX19, first 68 amino acids (domain or fragment, UniProt Q8NA77 1-68) MCPPVSMRYEEEGMSYLYASWMYQLQHGDQLSICFTCFKAAFLDFKDLLESEDWEEDNWDPELMEHTE

— article PMC5570191
